The target in the assay is mouse hFc-tagged IFN-β (mouse) (UniProt P01575). Nature of the assay: affinity purification with mass spectrometry; about 500 µg of proteins of 30-fold concentrated hEP-CdM incubated with or without mouse hFc-tagged IFN-β (1:1000) at 4 °C overnight; protein G magnetic beads 4 h at 4 °C; five washes in IP buffer; SDS-PAGE, silver staining, MS (Q Exactive, MASCOT); candidates selected by molecular weight and abundance; only the target purified.

Amino acid sequences for entries named in this document (tags omitted). Residues count along the entry.
UniProt P01575, residues 22-182: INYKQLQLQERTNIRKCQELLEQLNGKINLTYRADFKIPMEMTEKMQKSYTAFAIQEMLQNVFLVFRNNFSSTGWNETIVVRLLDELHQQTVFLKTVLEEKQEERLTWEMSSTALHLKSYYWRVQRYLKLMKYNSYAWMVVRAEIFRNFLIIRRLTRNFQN
UniProt P02649, residues 19-317: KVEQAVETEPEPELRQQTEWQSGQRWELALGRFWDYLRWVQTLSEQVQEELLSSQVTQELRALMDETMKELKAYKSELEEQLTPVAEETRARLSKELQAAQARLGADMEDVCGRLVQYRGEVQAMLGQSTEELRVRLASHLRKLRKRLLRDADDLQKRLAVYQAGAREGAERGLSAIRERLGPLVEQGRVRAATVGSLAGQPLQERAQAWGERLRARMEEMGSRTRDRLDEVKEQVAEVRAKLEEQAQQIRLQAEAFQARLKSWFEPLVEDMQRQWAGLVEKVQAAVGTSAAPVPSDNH
UniProt P07355: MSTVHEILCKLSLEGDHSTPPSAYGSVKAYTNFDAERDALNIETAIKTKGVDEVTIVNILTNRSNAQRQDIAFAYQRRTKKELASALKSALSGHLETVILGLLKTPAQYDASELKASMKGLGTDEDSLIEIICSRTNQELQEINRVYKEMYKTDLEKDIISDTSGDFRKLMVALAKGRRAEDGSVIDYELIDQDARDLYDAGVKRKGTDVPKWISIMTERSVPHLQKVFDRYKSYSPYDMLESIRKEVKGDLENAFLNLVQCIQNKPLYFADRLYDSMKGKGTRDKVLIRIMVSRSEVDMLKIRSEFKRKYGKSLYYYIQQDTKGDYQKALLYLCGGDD
UniProt P18065, residues 36-325: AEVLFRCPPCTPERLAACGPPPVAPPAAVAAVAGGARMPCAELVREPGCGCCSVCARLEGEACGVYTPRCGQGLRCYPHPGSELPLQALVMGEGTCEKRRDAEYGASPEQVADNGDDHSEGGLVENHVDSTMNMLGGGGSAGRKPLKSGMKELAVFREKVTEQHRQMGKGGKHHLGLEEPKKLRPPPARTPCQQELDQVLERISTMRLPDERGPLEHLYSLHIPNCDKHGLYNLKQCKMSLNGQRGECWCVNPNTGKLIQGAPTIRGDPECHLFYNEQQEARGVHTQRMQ

The record followed here is publication PMC10520683.

These are yes or no findings as the source states them, for the method shown. Binding seen in cells or lysates may run through a third protein. These calls come from enrichment with a bait or labelling near it, and not all partners need be listed.

In the case of “apolipoprotein E (APOE) (from UniProt P02649 19-317)”, the binding result is recorded as “binds”. Take “annexin A2 (ANXA2) (from UniProt P07355 1-339)”: the binding entry was “binds”.

Consider “insulin-like growth factor binding protein 2 (IGFBP2) (from UniProt P18065 36-325)”, for which the binding result is on record as “binds”.
